# Results published in patent US6994868B2, “Compositions useful as inhibitors of ERK” (Vertex Pharmaceuticals Incorporated, priority 2000, dated 2006).
# Some of these results come from one statement about several compounds together. At least one structure is not confirmed: it was looked up by name or label, or the drawing left a doubt.
# Tested on: Colon cancer cells (HT-29 cell line)
# Test: ERK inhibition cell proliferation assay (3H-thymidine uptake)
# Format: cell-based
# Conditions: 3 days incubation
row,Compound,IC50
1,O=C(NCc1ccc2c(c1)CCO2)c1cc(-c2[nH]ncc2-c2cccc(Br)c2)c[nH]1 [II-A-43],< 10 µM
2,O=C(NCc1ccncc1)c1cc(-c2[nH]ncc2-c2cc(Cl)cc(Cl)c2)c[nH]1 [II-A-48],< 10 µM
3,O=C(NC(CO)c1ccccc1)c1cc(-c2[nH]ncc2-c2cccc(Br)c2)c[nH]1 (stereo not drawn) [II-A-45],< 10 µM
